Source: US12472193B2, “Methods and compositions for treating and preventing respiratory related diseases and conditions with xylitol-headgroup lipid analogs” (National Jewish Health, priority 2017, dated 2025)
At least one compound was matched to its structure with a doubt left.

Molecular target: T1, TLR 9 (Mus musculus, UniProt Q9EQU3)
T1 construct: RAW264.7 cells secrete TNF-α in response to the TLR9 agonist CpG; endogenous in cells; host or cells: RAW264.7 (ATCC)
T1 sequence (Q9EQU3 26-1032): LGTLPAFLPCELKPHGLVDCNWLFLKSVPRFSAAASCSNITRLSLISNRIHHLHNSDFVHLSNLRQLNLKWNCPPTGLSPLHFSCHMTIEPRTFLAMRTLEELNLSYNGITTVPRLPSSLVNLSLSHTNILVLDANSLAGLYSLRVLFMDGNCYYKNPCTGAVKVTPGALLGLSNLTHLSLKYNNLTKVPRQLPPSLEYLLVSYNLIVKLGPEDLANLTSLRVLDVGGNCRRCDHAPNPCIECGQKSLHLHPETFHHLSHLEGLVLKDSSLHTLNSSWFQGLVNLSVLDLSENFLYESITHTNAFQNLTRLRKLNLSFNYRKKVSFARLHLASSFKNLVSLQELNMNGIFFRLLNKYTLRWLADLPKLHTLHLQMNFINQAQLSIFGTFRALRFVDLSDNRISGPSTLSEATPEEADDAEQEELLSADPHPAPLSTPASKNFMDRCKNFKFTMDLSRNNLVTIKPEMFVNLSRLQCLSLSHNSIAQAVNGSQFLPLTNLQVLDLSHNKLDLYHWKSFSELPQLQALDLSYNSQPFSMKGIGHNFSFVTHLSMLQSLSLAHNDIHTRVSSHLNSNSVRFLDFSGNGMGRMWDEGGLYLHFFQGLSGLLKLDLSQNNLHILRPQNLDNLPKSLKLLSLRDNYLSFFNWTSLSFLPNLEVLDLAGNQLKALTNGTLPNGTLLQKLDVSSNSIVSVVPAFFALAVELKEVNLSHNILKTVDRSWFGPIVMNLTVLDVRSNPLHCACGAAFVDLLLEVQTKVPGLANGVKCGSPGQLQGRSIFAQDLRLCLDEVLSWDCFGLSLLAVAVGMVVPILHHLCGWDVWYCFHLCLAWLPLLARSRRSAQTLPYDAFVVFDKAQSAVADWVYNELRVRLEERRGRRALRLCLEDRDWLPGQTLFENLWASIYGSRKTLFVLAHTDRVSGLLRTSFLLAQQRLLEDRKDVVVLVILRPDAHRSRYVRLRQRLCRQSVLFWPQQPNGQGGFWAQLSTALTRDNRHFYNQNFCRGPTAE
Assay: CpG-induced TNFα secretion by RAW264.7 cells (TLR 9 antagonism)
Format: cell-based
Conditions: reduction in cytokine secretion vs activating TLR ligand alone
Description: The mouse macrophage cell line, RAW264.7, was obtained from ATCC and maintained in DMEM, supplemented with 10% bovine growth serum and 1× penicillin streptomycin. Cells were maintained at 37° C. with 5% carbon dioxide: 95% air atmosphere within the incubator. Experiments were completed in a 96-well plate where cells were seated at a density of 1×10^5 cells per well, 24 prior to stimulation with TLR agonists and antagonists. Lipids were dried under a stream of nitrogen, hydrated with phosphate-buffered saline (PBS) at 37° C. for one hour, followed by water bath sonication to create liposomes. Each condition for cell stimulation and antagonism was prepared in DMEM in a separate tube and consisted of: control, TLR agonist, TLR agonist+lipid, and lipid alone. 100 μL aliquots of medium+agonists+antagonists were added to each well and incubated at 37° C. for 4 hours. Subsequently, the media were collected, diluted and an enzyme-linked immunosorbent assay (ELISA) was performed to quantify TNFα release by cells.
TLR 9 is another member of the intracellular TLRs found in the endosomal compartment. […]

CCCCCCC=CCCCCCCCC(=O)OCC(COP(=O)(O)OCC(O)C(O)C(O)CO)OC(=O)CCCCCCCC=CCCCCCC (mixture of isomers) [16:1 DPPX, sn-1-palmitoleoyl, sn-2-palmitoleoyl sn-3 glycerol phosphoxylitol]
TLR9 antagonist activity: −
